Experimental data as given in patent publication US20040024066A1, “Bicyclyl or heterobicyclylmethanesulfonylamino-substituted n-hydroxyformamides” (priority 2000, published 2004).
Some of these results come from one statement about several compounds together.

Assays:
[1] = molecular target: T1, human recombinant collagenase (Homo sapiens, UniProt P03956); experiment: Collagenase Inhibition Assay; format: biochemical; conditions: 37° C. for 18 h with acetylated 3H type 1 bovine collagen; read-out: IC50, concentration effecting 50% of the collagenase
T1 construct: made in house; host or cells: E. coli
T1 sequence (P03956 100-469): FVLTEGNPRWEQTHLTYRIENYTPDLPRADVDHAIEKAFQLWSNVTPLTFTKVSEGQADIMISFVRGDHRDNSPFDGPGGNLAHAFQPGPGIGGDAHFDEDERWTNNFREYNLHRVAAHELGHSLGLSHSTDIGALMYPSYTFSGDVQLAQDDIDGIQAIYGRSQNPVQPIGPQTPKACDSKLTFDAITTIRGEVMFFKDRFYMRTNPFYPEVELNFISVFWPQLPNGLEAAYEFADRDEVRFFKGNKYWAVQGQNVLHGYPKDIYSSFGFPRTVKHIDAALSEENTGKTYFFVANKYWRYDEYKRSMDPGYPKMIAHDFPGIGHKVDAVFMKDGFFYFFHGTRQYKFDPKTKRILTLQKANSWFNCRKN

[2] = test system: CD23 cleavage activity of RPMI 8866 cell plasma membranes (production of sCD23); experiment: RPMI 8866 Cell Membrane CD23 Cleavage Activity Assay (inhibition of release of soluble CD23); format: biochemical, human; conditions: RPMI 8866 plasma membranes, 37° C., sCD23 measured by EIA; read-out: IC50, concentration where 50 % inhibition of production of sCD23 is observed

SMILES | IC50 [1] [nM] | IC50 [2] [nM]
O=CN(O)[C@H](CS(=O)(=O)Cc1ccc2sc(F)cc2c1)c1ccccc1 [Example 24, (S)—N-[1-Phenyl-2-(2-fluoro-benzo[b]thiophen-5-yl-methanesulfonyl)ethyl]-N-hydroxyformamide] | ≥ 10000 | ≤ 1000
O=CN(O)C(CS(=O)(=O)Cc1ccc2sccc2c1)c1ccc(Cl)c(Cl)c1 (stereo not shown) [Example 1, N-[2-(Benzo[b]thiophen-5-yl-methanesulfonyl)-1-(3,4-dichlorophenyl)-ethyl]-N-hydroxy-formamide] | ≥ 10000 | ≤ 1000
O=CN(O)[C@H](CS(=O)(=O)Cc1ccc2occc2c1)c1ccccc1 [Example 23, (S)—N-[1-Phenyl-2-(benzo[b]furan-5yl-methanesulfonyl)ethyl]-N-hydroxyformamide] | ≥ 10000 | ≤ 1000
O=CN(O)[C@H](CS(=O)(=O)CC1Cc2ccccc2C1)c1ccccc1 [Example 22, (S)—N-[1-Phenyl-2-(2-indanylmethanesulfonyl)ethyl]-N-hydroxyformamide] | ≥ 10000 | ≤ 1000
CC(C)OC[C@@H](CS(=O)(=O)Cc1ccc2sccc2c1)N(O)C=O [Example 58, (S)—N-[1-(Benzo[b]thiophen-5-ylmethanesulfonyl)-3-isopropoxy-2-propyl]-N-hydroxyformamide] | ≥ 10000 | ≤ 1000
O=CN(O)C(CS(=O)(=O)Cc1ccc2sccc2c1)c1ccc2c(c1)OCCCO2 (stereo not shown) [Example 5] | ≥ 10000 | ≤ 1000
O=CN(O)C(CS(=O)(=O)Cc1ccc2sccc2c1)c1ccc2c(c1)OCCO2 (stereo not shown) [Example 4] | ≥ 10000 | ≤ 1000
CC(C)C[C@@H](CS(=O)(=O)Cc1cnc2ccccc2c1)N(O)C=O [Example 54, (S)—N-[1-(3-Quinolylmethanesulfonyl)-4-methyl-2-pentyl]-N-hydroxyformamide] | ≥ 10000 | ≤ 1000
O=CN(O)[C@H](CS(=O)(=O)Cc1cnc2ccsc2c1)c1ccccc1 [Example 49, (S)—N-[1-Phenyl-2-(6-thieno[3,2-b]pyridylmethanesulfonyl)ethyl]-N-hydroxyformamide] | ≥ 10000 | ≤ 1000
O=CN(O)C(CS(=O)(=O)Cc1ccc2sccc2c1)c1ccccc1 (stereo not shown) [Example 2] | ≥ 10000 | ≤ 1000
CCOC(=O)c1ccc([C@@H](CS(=O)(=O)Cc2cnc3ccccc3c2)N(O)C=O)cc1 [Example 42, (S)—N-[2-(3-Quinolylmethanesulfonyl)-1-(4-ethoxycarbonylphenyl)ethyl]-N-hydroxyformamide] | ≥ 10000 | ≤ 1000
CC(=O)Nc1ccc([C@@H](CS(=O)(=O)Cc2ccc3sccc3c2)N(O)C=O)cc1 (single isomer, unassigned) [Example 35] | ≥ 10000 | ≤ 1000
COc1ccc([C@@H](CS(=O)(=O)Cc2cnc3ccccc3c2)N(O)C=O)cc1 [Example 50, (S)—N-[1-(4-Methoxyphenyl)-2-(3-quinolylmethanesulfonyl)ethyl]-N-hydroxyformamide] | ≥ 10000 | ≤ 1000
COc1ccc(C(CS(=O)(=O)Cc2ccc3sccc3c2)N(O)C=O)cc1 (stereo not shown) [Example 3] | ≥ 10000 | ≤ 1000
O=CN(O)[C@H](CS(=O)(=O)Cc1cnc2sccc2c1)c1ccccc1 [Example 48, (S)—N-[1-Phenyl-2-(5-thieno[2,3-b]pyridylmethanesulfonyl)ethyl]-N-hydroxyformamide] | ≥ 10000 | ≤ 1000
O=CN(O)[C@H](CS(=O)(=O)Cc1ccc2sccc2c1)c1ccc(F)cc1 [Example 16] | ≥ 10000 | ≤ 1000
COc1cccc([C@@H](CS(=O)(=O)Cc2ccc3sccc3c2)N(O)C=O)c1 [Example 14] | ≥ 10000 | ≤ 1000
O=CN(O)[C@H](CS(=O)(=O)Cc1cnc2ccccc2c1)c1ccccc1 [Example 26, (S)—N-[1-Phenyl-2-(3-quinolylmethanesulfonyl)ethyl]-N-hydroxyformamide] | ≥ 10000 | ≤ 1000
O=CN(O)[C@H](CS(=O)(=O)Cc1ccc2sccc2c1)c1cccc(F)c1 [Example 15] | ≥ 10000 | ≤ 1000
O=CN(O)[C@H](CS(=O)(=O)CC1Cc2ccccc2C1)c1cccc(NC(=O)OCc2ccccc2)c1 [Example 38, (S)—N-[2-(Indan-2-ylmethanesulfonyl)-1-(3-benzyloxycarbonylaminophenyl)ethyl]-N-hydroxyformamide] | – | ≤ 1000
O=CN(O)[C@@H](Cc1ccccc1)CS(=O)(=O)Cc1ccc2sccc2c1 [Example 30, (S)—N-[1-(Benzo[b]thiophen-5-yl-methanesulfonyl)-3-phenyl-2-propyl]-N-hydroxyformamide] | – | ≤ 1000
